Data reported in patent publication US7652027B2, “Phenanthroindolizidine alkaloids” (National Health Research Institutes, priority 2005, dated 2010).
At least one compound was matched to its structure with a doubt left.

Test system: NF-κB
Assay: pNF-κB-Luc luciferase reporter assay in LPS/IFNγ-treated RAW 264.7 (or A549) cells
Type: cell-based
Details: Compound 2 and LY294002 named together; LPS/IFNγ-treated RAW264.7 cells
Protocol: The luciferase and β-galactosidase assays were performed using a STEADY-GLO luciferase assay system (Promega) and Galacto-Star assay system (Tropix) according to the manufacturer's instructions. Luminescence was measured in a TOPCOUNT.NXT™ Microplate Scintillation and Luminescence Counter (Packard Inc.). The results were normalized to β-galactosidase activity derived from co-transfected LacZ gene under the control of a constitutive promoter.
RAW 264.7 cells (or A549 cells) were seeded in 24-well plates (10^6 cells/well) 4-6 h before they were transfected with pNF-κB-Luc (Stratagene Corp., Calif.) (100 ng/well) and pCMV-β-gal (100 ng/well), or pAP 1-Luc (Stratagene Corp., Calif.) (200 ng/well) alone. The transfected cells were incubated for 24 h and then washed with the culture medium twice. After 18 h of incubation, the cells were treated with LPS (10 μg/ml)/IFNγ (20 ng/ml) and Compound 2 (final concentration: 0.3, 1, 3, or 10 μM) for 5 h. The cells were subjected to the luciferase and β-galactosidase assays.

**Q.** `O=c1cc(N2CCOCC2)oc2c(-c3ccccc3)cccc12` [LY294002, reference compound] was tested. Which “inhibition of NF-κB activity, Compound 2 and another P13K/Akt inhibitor” value did it give?
**A.** significantly inhibited
